These are yes or no findings as the source states them, for the method shown. Binding calls can cover weak binding; strength is not graded here. Tags and fused reporters may be left off the sequences shown.

Results on one molecule are retold here after paper PMC7761207, “Molecular Characterization of the Burkholderia cenocepacia dcw Operon and FtsZ Interactors as New Targets for Novel Antimicrobial Design” (Antibiotics, 2020).

The target in this assay is B. cenocepacia FtsZ, protein of the sedimentation assays (Burkholderia cenocepacia). Kind of assay: co-sedimentation; 25 mM PIPES pH 6.8, 10 mM MgCl2, 12 uM FtsZ, 12 uM ZipA or SulA, 2 mM GTP; 10 min 30 C; 350,000 x g 10 min 25 C; SDS-PAGE of pellet and supernatant; both purified.

B1: putative SulA (pBCA006) of B. cenocepacia J2315, BACTH hybrid (natural protein, Burkholderia cenocepacia J2315, UniProt B4EQP0 1-238, looked up)
chain: MHPALAHPEAIHPALWRASQLARPSVRGVDTGHLELTAELPGGGWPAGALIELLAPQPGIGELRLLAPVLARTAGKPVMLIQPPHALQPLALAYWGIDPSGFVTLPAPRTADALWAAEQALRAGTCAAVLLWQSHVRADALRRLNLAAQSGQALFYLFRPVAAARDASPAPLRLALAPKRDGIDVTFLKRRGPARDTPLFVPLSPSPILLNRHASLDRRASAAPQPRSVPATIAGAVA
notes: putative SulA, product of gene pBCA006 of Burkholderia cenocepacia J2315; Cloned in all four BACTH vectors; source: bacterial two-hybrid (BACTH) fusion, E. coli BTH101
As to B1, the binding result is reported as “binds”.
